From PubChem BioAssay AID662 (National Center for Advancing Translational Sciences (NCATS), 2007)
The other results are listed elsewhere or left out. The main result of the screen is listed elsewhere. These columns were measured beside it and carry no call. Most of these compounds were active or inconclusive in the main read-out, so they are no random draw. The note in brackets gives the kind of curve behind each potency; many fits are weak.

assay: Cell signaling CRE-BLA (Fsk stim); details: CHO CRE-bla reporter (cAMP response element driving beta-lactamase), forskolin EC10, beta-lactamase ratio; measured here: 460 nm blue channel
How it was run: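 Reporter-gene assay: CHO cells with beta-lactamase behind cAMP responsive elements, co-treated with compound and EC10 NKH 477 for 3 hours at 37 degrees Celsius. Activity came from the 460/530 nm CCF4 emission ratio.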

Row | Compound | AC50
1 | CC(=O)c1c(C)nc2cc(Cl)ccc2c1N | 10 µM [rising, partial curve]
2 | COc1ccc(-n2nnnc2S(=O)(=O)CC(=O)N2CCCCC2)cc1 | 1.58 µM [falling, full curve]
3 | C=CCn1c(=O)c2ccccc2n2c(SCc3nc(N)nc(Nc4ccccc4C)n3)nnc12 | 12.6 µM [rising, partial curve]
4 | CCOC(=O)c1sc2nc(N3CCOCC3)c3c(c2c1N)CCC3 | 10 µM [rising, partial curve]
5 | COc1cc(C(C)=O)ccc1OCC(O)CNCC1(N2CCCCC2)CCCCC1 (stereo unspecified) | 5.01 µM [falling, single point]
6 | CC(=O)Nc1ccc(S(=O)(=O)NCCc2cc3c(C)ccc(C)c3[nH]c2=O)cc1 | 12.6 µM [rising, single point]
7 | COc1ccc(NC(=O)c2cc(-c3ccc(OC)c(OC)c3)on2)cc1OC | 0.0251 µM [falling, full curve, poor fit]
8 | COc1ccccc1N1CCN(C(=O)N2CCOCC2)CC1 | 0.0631 µM [rising, full curve]
9 | Nc1cccc(-n2nncc2-c2ccc(Cl)cc2)c1 | 25.1 µM [rising, single point]
10 | COc1cccc(C(=O)Nc2c3c(nn2-c2cccc(C)c2C)CS(=O)(=O)C3)c1OC | 12.6 µM [rising, partial curve]
11 | CCOC(=O)COn1c(=O)c(-c2cccs2)[n+]([O-])c2ccccc21 | 15.8 µM [rising, partial curve]
12 | O=C(N1CCOCC1)N(CCN1CCOCC1)Cc1cccc(Cl)c1 | 0.501 µM [falling, partial curve, poor fit]
13 | CNc1nc(-c2ccc3c(c2)OCO3)nc2ccccc12 | 5.01 µM [rising, partial curve]
14 | COCCn1c(=S)[nH]c2cc(C(=O)N3CCN(c4ccccc4OC)CC3)ccc2c1=O | 20 µM [rising, single point]
15 | N[C@@H](Cc1cc(-c2ccc(Cl)cc2Cl)cc(CP(=O)(O)O)c1O)C(=O)O | 31.6 µM [falling, single point]
16 | Cn1c(=O)c(C(=O)NCCO)c(O)c2ccccc21 | 0.00316 µM [falling, full curve, poor fit]
17 | Cn1cccc1Cc1nnc(SCC(=O)N2CCc3ccccc32)n1-c1ccc(F)cc1 | 5.01 µM [rising, partial curve]
18 | CCCOc1ccc2ccccc2c1/C=N/n1c(C)nnc1-n1nc(C)cc1C | 1 µM [falling, partial curve, poor fit]
19 | NCCC[C@@H](CC(=O)N[C@@H]1CCNC[C@H]1C(=O)N[C@H](CC(=O)N[C@@H](CCC(=O)O)CC(=O)O)Cc1c[nH]c2ccccc12)NC(=O)C[C@H](Cc1c[nH]c2ccccc12)NC(=O)[C@@H]1CNCC[C@H]1N | 7.94 µM [falling, full curve, poor fit]
20 | COc1cccc(Cn2c(=O)c(-c3cccc(C#N)c3)nc3cnc(N4CCOCC4)nc32)c1 | 0.501 µM [rising, full curve]
21 | C/C(NC1CCCCC1)=C(/C#N)C(=O)NCCN1CCOCC1 | 3.98 µM [falling, full curve]
22 | O=C(COc1ccccc1O)Nc1ccc(Cl)cc1 | 2 µM [falling, full curve, poor fit]

Row | Compound | AC50
23 | CCc1ccccc1NC(=O)N[C@@H](C)C(=O)OC | 25.1 µM [rising, single point]
24 | COCCNS(=O)(=O)c1ccc2c(c1)oc(=O)c1cc(S(=O)(=O)NCCOC)ccc12 | 25.1 µM [rising, single point]
25 | COCCn1nnnc1C(C(C)C)N(Cc1cccnc1)Cc1cc2cc(OC)ccc2[nH]c1=O (stereo unspecified) | 20 µM [rising, single point]
26 | COc1cc2c(=O)n(CC3CCCO3)c(=O)n(CC(=O)Nc3cccc(Cl)c3)c2cc1OC (stereo unspecified) | 10 µM [rising, single point]
27 | Cc1ccsc1C(=O)OC1CCOC1=O (stereo unspecified) | 5.01 µM [falling, single point]
28 | S=c1[nH]nc(CSc2nc3ccccc3s2)o1 | 12.6 µM [falling, partial curve]
29 | CC1=C(C(=O)Nc2ccccn2)C(c2ccc(Br)cc2)n2ncnc2N1 (stereo unspecified) | 0.1 µM [falling, full curve]
30 | Cn1c(=O)c2cn(-c3ccc4c(c3)OCCO4)cc2n(C)c1=O | 7.94 µM [rising, partial curve]
31 | Cn1c(C(O)c2ccc3c(c2)OCO3)nc2ccccc21 (stereo unspecified) | 0.00398 µM [falling, full curve, poor fit]
32 | Nc1nc2n(n1)C1(CCCCC1)C1=C(CCCC1)N2 | 0.00316 µM [falling, full curve]
33 | Cc1c2ccccc2c(CSC(=N)N)c2ccccc12 | 3.98 µM [rising, partial curve]
34 | CCOC(=O)c1ccc(NC(=O)CCc2nc(-c3ccc(C)cc3)no2)cc1 | 3.98 µM [falling, partial curve]
35 | COc1cc2nc(CN(C)CC(=O)Nc3ccc(N4CCOCC4)cc3)[nH]c(=O)c2cc1OC | 12.6 µM [rising, single point]
36 | CCN(CCCNC(=O)CCn1c(=O)[nH]c2ccccc2c1=O)c1ccccc1 | 0.126 µM [falling, partial curve, poor fit]
37 | O=S1(=O)CCN2C(=N1)Sc1c2ccc2c1CCCC2 | 10 µM [rising, single point]
38 | CCOC(=O)c1cc2c(C(F)(F)F)cc(-c3cccnc3)nc2o1 | 3.98 µM [rising, single point]
39 | CSc1nc(-c2ccco2)nn1C(=O)c1cccs1 | 6.31 µM [falling, partial curve]
40 | C[C@H](CCC(=O)O)[C@H]1CC[C@H]2[C@@H]3CC[C@@H]4C[C@H](O)CC[C@]4(C)[C@H]3CC[C@]12C | 31.6 µM [falling, single point]
41 | Oc1ccc(N2CCN(C(c3cccnc3)c3nnnn3Cc3ccccc3)CC2)cc1 (stereo unspecified) | 10 µM [falling, partial curve]
42 | COc1ccc(NC(=O)c2ccc3c(c2)OCO3)cc1Cl | 10 µM [rising, single point]
43 | O=C(C1Cc2ccccc2O1)N1CCCCC1 (stereo unspecified) | 0.398 µM [falling, full curve]
44 | CCOC(=O)c1ccc(NC(=O)CCc2c(C)nc3ncnn3c2C)cc1 | 20 µM [rising, single point]

Row | Compound | AC50
45 | O=C(O)CNC(=O)[C@@H](CS)Cc1ccccc1 | 12.6 µM [rising, single point]
46 | Cc1nn(-c2ccccc2)c(C)c1NC(=O)c1ccc(S(=O)(=O)N2CCCC2)cc1 | 12.6 µM [falling, partial curve]
47 | COc1cccc(Nc2nc(-c3sc(N)nc3C)cs2)c1 | 31.6 µM [falling, single point]
48 | COc1nc2ccccc2cc1-c1noc(-c2cccnc2)n1 | 31.6 µM [falling, single point]
49 | N#CC1(c2c(O)nc3n(c2=O)CCCS3)CCCCC1 | 0.251 µM [falling, full curve]
50 | CCOC(=O)C1CCCN(Cc2cc(Br)ccc2OC)C1 (stereo unspecified) | 0.631 µM [rising, full curve]
51 | COc1ccc(NC(=O)CSc2nnc(-c3cccs3)n2-c2ccccc2)cc1 | 10 µM [rising, single point]
52 | COc1cccc(-n2c(COc3ccccc3C)nnc2SCC(=O)O)c1 | 0.00794 µM [rising, full curve, poor fit]
53 | CCOC(=O)C1=C(c2ccccc2)Nc2ncnn2C1c1cc(OC)cc(OC)c1OC (stereo unspecified) | 25.1 µM [rising, single point]
54 | CCC(C)c1ccc(NC(=O)c2cccnc2)cc1 (stereo unspecified) | 0.00316 µM [falling, full curve, poor fit]
55 | Nc1ccc(-c2nc3ccc(-c4nc5ccccc5o4)cc3[nH]2)cc1 | 12.6 µM [rising, partial curve]
56 | CC(C)CC1(C)NC(=O)N(CCN2C(=O)c3ccccc3C2=O)C1=O (stereo unspecified) | 0.0316 µM [falling, full curve, poor fit]
57 | O=C(Nc1ccc2oc(-c3ccncc3)nc2c1)c1cccs1 | 25.1 µM [rising, single point]
58 | COCCn1c(=O)c(C)nc2cnc(N(C)C)nc21 | 10 µM [rising, partial curve]
59 | COc1ccc(S(=O)(=O)N2CCCN(CC(=O)Nc3ccc(OC)c(Cl)c3)CC2)cc1 | 25.1 µM [rising, single point]
60 | COC(=O)C1=C(C)NC(C)=C(C(=O)OC(C)C)C1c1cccc2nonc12 (stereo unspecified) | 12.6 µM [rising, partial curve, poor fit]
61 | O=C(OCC(=O)N1CCOCC1)c1ccc2c(c1)OCCO2 | 3.98 µM [falling, single point]
62 | CC[C@@]12CCCN3CCc4c(n(c5ccccc45)[C@](O)(C(=O)OC)C1)[C@H]32 | 5.01 µM [falling, partial curve, poor fit]
63 | COC(=O)c1ccc(CN2CCN(Cc3ccc(C(=O)OC)o3)CC2)o1 | 0.0794 µM [falling, partial curve, poor fit]
64 | c1ccc(-c2nnc(CSc3nc4ccccc4[nH]3)o2)cc1 | 10 µM [rising, single point]
65 | CCCc1cc(N2CCCC(C(=O)Nc3ccc(OC)cc3OC)C2)n2ncnc2n1 (stereo unspecified) | 10 µM [rising, single point]
66 | O=C(c1nc2nc(-c3ccc(Cl)cc3)cc(C(F)(F)F)n2n1)N1CCOCC1 | 15.8 µM [rising, partial curve]

Compounds 20–21, reprinted for reference:
Row | Compound | AC50
20 | COc1cccc(Cn2c(=O)c(-c3cccc(C#N)c3)nc3cnc(N4CCOCC4)nc32)c1 | 0.501 µM [rising, full curve]
21 | C/C(NC1CCCCC1)=C(/C#N)C(=O)NCCN1CCOCC1 | 3.98 µM [falling, full curve]
